Experimental data taken from patent US20130210042A1, “DIAGNOSTIC AND PROGNOSTIC METHOD FOR HUMAN TAUOPATHIES” (CONSIGLIO NAZIONALE DELLE RICERCHE, priority 2010, published 2013).
Results are given in words; binding and its absence hold for the method and conditions named. For some of these results: Binding seen in cells or lysates may run through a third protein. Some results given as binding are weak or reduced against the parent protein; the word gives no strength.

Amino acid sequences for entries named in this document (tags omitted). A change or cut given only in a name is not applied to a line headed by its entry.
UniProt P10636: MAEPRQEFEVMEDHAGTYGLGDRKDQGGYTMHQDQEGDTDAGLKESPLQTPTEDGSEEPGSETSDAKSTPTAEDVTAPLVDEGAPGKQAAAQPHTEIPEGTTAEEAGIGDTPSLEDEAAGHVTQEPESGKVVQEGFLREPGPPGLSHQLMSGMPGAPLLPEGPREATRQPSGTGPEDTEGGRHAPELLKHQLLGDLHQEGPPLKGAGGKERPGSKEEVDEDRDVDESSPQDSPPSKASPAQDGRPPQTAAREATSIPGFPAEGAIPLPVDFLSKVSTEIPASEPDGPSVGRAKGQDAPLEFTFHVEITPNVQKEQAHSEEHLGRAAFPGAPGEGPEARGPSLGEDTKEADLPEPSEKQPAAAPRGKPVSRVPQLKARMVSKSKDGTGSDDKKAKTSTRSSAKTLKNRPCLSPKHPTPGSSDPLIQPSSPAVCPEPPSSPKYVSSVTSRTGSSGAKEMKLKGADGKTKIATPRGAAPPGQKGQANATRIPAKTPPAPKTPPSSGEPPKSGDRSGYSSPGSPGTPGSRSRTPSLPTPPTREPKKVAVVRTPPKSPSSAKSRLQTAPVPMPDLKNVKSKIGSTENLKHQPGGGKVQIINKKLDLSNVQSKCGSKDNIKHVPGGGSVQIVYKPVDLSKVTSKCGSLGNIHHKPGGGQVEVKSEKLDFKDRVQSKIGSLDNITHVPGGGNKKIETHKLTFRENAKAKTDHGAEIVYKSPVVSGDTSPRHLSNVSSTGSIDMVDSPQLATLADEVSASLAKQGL

Experiments:
[1] = target: T1, ANT1: ADP/ATP translocase 1 [Homo sapiens] (Homo sapiens) (UniProt P12235); experiment: co-immunoprecipitation
T1 sequence: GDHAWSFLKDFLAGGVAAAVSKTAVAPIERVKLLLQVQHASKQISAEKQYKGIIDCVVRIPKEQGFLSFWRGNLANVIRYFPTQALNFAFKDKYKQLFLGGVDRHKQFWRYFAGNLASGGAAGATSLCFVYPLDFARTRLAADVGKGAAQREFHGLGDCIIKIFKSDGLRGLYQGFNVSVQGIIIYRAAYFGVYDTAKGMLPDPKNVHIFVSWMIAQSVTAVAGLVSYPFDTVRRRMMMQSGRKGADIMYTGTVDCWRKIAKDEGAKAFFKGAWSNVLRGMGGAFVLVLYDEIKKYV

[2] = target: T1, ANT1: ADP/ATP translocase 1 [Homo sapiens] (Homo sapiens); experiment: reciprocal co-immunoprecipitation and confocal colocalisation
[3] = target: T1, ANT1: ADP/ATP translocase 1 [Homo sapiens] (Homo sapiens); experiment: co-immunoprecipitation from AD synaptosomes, bait CCP-NH2 tau antiserum, Western blot with ANT-1 antibody
[4] = target: T1, ANT1: ADP/ATP translocase 1 [Homo sapiens] (Homo sapiens); experiment: reciprocal immunoprecipitation from synaptic mitochondria with ANT-1 antibody, Western blot with CCP-NH2 tau

Measured: binding

20-22 kDa NH2-truncated tau fragment (from UniProt P10636 26-547)
binds: [1] | [2] | [3] | [4]
